Experimental data as given in PubChem BioAssay AID493014 (National Center for Advancing Translational Sciences (NCATS), 2011).
Some of the results follow. Further columns of the screen follow, without active or inactive calls. The list favours compounds with an active or inconclusive main result. Words in brackets tell the shape of the fitted curve; partial curves, single points and poor fits give uncertain potencies.

Assay: qHTS Assay to Find Inhibitors of Chronic Active B-Cell Receptor Signaling
Details: ABC-DLBCL IkBa-CBG/CBR reporter, luminescence ratio (green luciferase fused to IkBa over red control in TMD8 lymphoma cells), 4 h; measured here: CBR red luminescence, cell number
Source text: NIH Molecular Libraries Probe Production Network [MLPCN] NIH Chemical Genomics Center [NCGC] MLPCN Grant: 1 R03 DA031086-01A1 PI Name: Dr. R. Eric Davis NCGC Assay Overview: Diffuse large B-cell lymphoma (DLBCL) is the most common category of non-Hodgkin lymphoma, with ~20,000 new cases per year in the United States. DLBCL should be regarded as a collection of different neoplasms. Microarray gene expression analysis has defined two principal types of DLBCL, named for their similarity to normal B cell stages or activation states: a germinal center B-cell (GCB) type, and an activated B-cell (ABC) type. In ABC-DLBCL, a constitutive high-level activity of the NF-kappaB family of transcription factors has been observed (1) and NF-kappaB target genes are more highly expressed in ABC primary tumors than in GCB tumors. Functional studies have shown a constitutive high-level activity of the IkappaB (inhibitor of kappa-B) kinase (IKK) complex. […] Further analysis of DLBCL primary tumors for NF-kappaB target gene expression imply that although CARD11 is required for constitutive IKK activity in all ABC-DLBCL lines, mutations in CARD11 may be the root cause of IKK activation only in lines or tumors with such mutations. In other words, CARD11 mutations may explain NF-kappaB activation in only 10% of ABC-DLBCL cases. […] This process has been termed 'chronic active BCR signaling' (CABS). The goal of this screen is to find small-molecule inhibitors of the CABS pathway found in ABC-DLBCL lines using a cell-based assay that measures IkappaBalpa stability, which has already been extensively validated in the OCI-Ly3 line (PubChem AID:445; REF: 4). […] The assay uses green (CBG68) and red (CBR) emitting beetle luciferases [Chroma-GloTM developed by Promega Corp.] where the green luciferase is fused to IkappaBalpha and the red luciferase is present in its native state. Both luciferase genes are stably present in the TMD8 human ABC DLBCL cell line, but their expression is under the control of tetracycline-inducible promoters. Following the addition of doxycycline to induce expression of the luciferases, the green luminescence in control cultures rises only slowly because the CBG fusion partner IkappaBalpha is targeted by IKK activity for rapid degradation. In contrast, green luminescence rises rapidly in the presence of proteasome inhibitors or IKK inhibitors. The rise in red luminescence of CBR is not affected by proteasome or IKK inhibitors, and serves as normalization for cell number and nonspecific effects. Compounds were screened as a concentration-titration series that ranged from 46 uM to 3 nM.
NCGC Assay Protocol Summary: Cells were seeded in 1536-well plates at 5000 cells/4uL in IMDM medium containing 0.5% FBS, w/o phenol red, 1% penicillin/streptomycin. Then, 23 nL of compounds or DMSO were delivered to each well using a pin tool. One uL 20ng/ml doxycycline was then dispensed into white solid 1536-well plates and the plates were incubated at 37C/5% C02 in a cell incubator for 4 hrs. Then 4 uL luminescent substrate mix (in-house prepared: 150 mM Tris-Cl, pH 7.6, 3 mM MgCl2, 1% Triton X-100, 5 mM DTT, 0.2 mM CoA, 0.15 mM ATP, 5 mM D-luciferin, final concentrations) was added to each well. The plate was incubated at r.t. for 10-15 min. The plates were measured on a ViewLux plate reader for green luminescence (540/20 nm filter) and red luminescence (618/8 nm filter). The green and red luminescent signals were corrected for red and green luminescence filter overlap using previously determined filter calibration constants (determined using the procedure outlined in the Promega Technical Manual; REF 4). The %Activity was determined from the ratio of corrected green/red luminescent values. MG132 were used as control. […] Red luminescent %Activity was normalized to the difference between red luminesence in basal cells (0%Activity) and zero luminescence (-100% Activity). […]

Compound	AC50
O=C1c2ccccc2C(=O)N1CC(O)Cn1nnc2ccccc21 (configuration not stated)	5.17 µM [rising, partial curve, poor fit]
COCC(=O)NC1(c2nnnn2CCOC(=O)Nc2ccc(Cl)cc2)CCCCC1	10 µM [rising, partial curve, poor fit]
COC(=O)c1ccc(S(=O)(=O)c2ccccc2)c(N)c1	6.51 µM [falling, single point]
Cc1ccc(C(=O)NC(=S)Nc2ccc(N3CCOCC3)cc2)cc1	31.6 µM [rising, single point]
Cc1nn(Cc2cccc(F)c2)c(C)c1NC(=O)c1ccc(COc2ccccc2Cl)cc1	9.2 µM [falling, partial curve, poor fit]
COc1ccc(-n2c(=O)c3ccccc3n(CC(=O)c3ccccc3)c2=O)cc1OC	6.31 µM [rising, partial curve, poor fit]
COC(=O)c1ccc(NC(=S)NC2CCCCC2)cc1	3.55 µM [rising, single point]
Cc1ccc(S(=O)(=O)N(C)C)cc1NC(=O)COC(=O)CCNS(=O)(=O)c1ccccc1	29.1 µM [rising, single point]
O=C(/C=C/c1ccco1)Nc1ccccc1N1CCOCC1	3.66 µM [rising, full curve, poor fit]
COc1cc(Br)cc(/C=N/c2ncn[nH]2)c1O	16.4 µM [falling, single point]
CCOc1ccc(/C=N/Nc2ccccn2)cc1	6.31 µM [rising, full curve, poor fit]
COC(=O)[C@H](CCSC)NC(=O)NCCc1ccccc1F	0.082 µM [rising, full curve, poor fit]
Cc1c(C)c2ccc(OCC(=O)Nc3ccccn3)cc2oc1=O	0.316 µM [rising, full curve, poor fit]
CC1CCCN(C(=O)CNC(=O)c2cccs2)C1 (configuration not stated)	18.4 µM [falling, single point]
CCN(CC)c1nc2ccccc2nc1C(=O)Nc1ccc(C(C)=O)cc1	14.1 µM [falling, partial curve, poor fit]
Cc1cc(C(=O)Nc2ccccc2C(=O)N2CCCCC2)ccc1[N+](=O)[O-]	15.8 µM [rising, single point]
Nc1c2c(nn1-c1ccccc1)CCC2	14.1 µM [falling, single point]
NC(=O)C1CCN(C(=O)Cc2ccc(-c3ccccc3)cc2)CC1	0.562 µM [falling, full curve, poor fit]
O=C1Oc2ccccc2C(=O)/C1=C\N1CCN(c2ccccc2)CC1	4.47 µM [falling, full curve]
Cc1ccc(-n2nnnc2SCC(=O)Nc2ccccc2-c2ccccc2)cc1C	3.26 µM [rising, partial curve, poor fit]
Cc1c(NC(=O)C(=O)/C=C(/O)c2ccccc2)c(=O)n(-c2ccccc2)n1C	6.51 µM [rising, single point]

Compound	AC50
C/C=C/c1ccc(OCC(=O)O)c(OC)c1	5.62 µM [rising, partial curve, poor fit]
O=C(N/N=C/c1c[nH]c2ccccc12)c1ccn(Cc2ccc(Cl)cc2Cl)n1	7.94 µM [falling, partial curve]
COCCCNC(=O)c1cc(Nc2ccc(OC)cc2OC)nc2ccccc12	11.2 µM [falling, single point]
O=C(O)c1cccc(-c2ccc(/C=N/NC(=O)c3cccnc3)o2)c1	9.2 µM [falling, partial curve]
CCC(=O)N1N=C(c2ccc(NS(=O)(=O)c3ccccc3)cc2)CC1c1ccco1 (configuration not stated)	3.26 µM [rising, partial curve]
N#CC(C(=O)c1ccccc1Cl)=C1SCCCS1	20 µM [rising, partial curve, poor fit]
O=C(/C=C/c1cccc([N+](=O)[O-])c1)Nc1cccc(NC(=O)c2ccco2)c1	1.84 µM [falling, full curve]
CCC(=O)Nc1nnc(-c2ccc(Cl)s2)o1	10 µM [falling, single point]
CC1=C(C)CC(C(=O)NCc2ccc3c(c2)OCO3)C(C(=O)O)C1 (configuration not stated)	6.51 µM [rising, single point]
CCn1c(CCCOc2ccc(Cl)cc2Cl)n[nH]c1=S	5.62 µM [rising, partial curve, poor fit]
CCOC(=O)c1c(-c2ccccc2)cn2ccccc12	12.6 µM [rising, partial curve, poor fit]
CCn1c(=O)cc(OCC(=O)NCc2ccc(C)o2)c2ccccc21	2.31 µM [rising, partial curve, poor fit]
COc1cccc(CN(C)C(=O)c2ccc3c(=O)n4c(nc3c2)CCC4)c1	20.6 µM [falling, partial curve, poor fit]
O=C(O)c1cccc2sc3cc(Cl)ccc3c(=O)c12	23.1 µM [rising, single point]
O=C(OCc1nc2scc(-c3ccccc3)c2c(=O)[nH]1)c1cc([N+](=O)[O-])ccc1Cl	29.1 µM [falling, single point]
C=C(C)c1ccc(C(C)(C)NC(=O)N(Cc2ccccc2)Cc2ccco2)cc1	29.1 µM [rising, single point]
COc1cccc2cc(C(C)N(CCCN3CCOCC3)C(=S)Nc3ccc(C)c(C)c3)oc12 (configuration not stated)	22.4 µM [falling, single point]
CCOc1cccc2cc(C(=O)N3CCc4ccccc4C3)c(=O)oc12	8.2 µM [falling, partial curve, poor fit]
CC(C)N(C(=O)C1CC(=O)OC12CCCCC2)C(C)C (configuration not stated)	2.06 µM [falling, partial curve]
COc1cc(CN2CCNC(=O)C2CC(=O)NCc2csc(C(C)C)n2)cc(OC)c1 (configuration not stated)	35.5 µM [falling, single point]
CCOC(=O)Cc1csc(NC(=O)c2sc3nc4ccc(C)cc4cc3c2N)n1	11.2 µM [falling, partial curve, poor fit]

Of the compounds above, these contain fluorine.
Compound	AC50
Cc1nn(Cc2cccc(F)c2)c(C)c1NC(=O)c1ccc(COc2ccccc2Cl)cc1	9.2 µM [falling, partial curve, poor fit]
COC(=O)[C@H](CCSC)NC(=O)NCCc1ccccc1F	0.082 µM [rising, full curve, poor fit]
